Measured values as given in PMC9484707.
Results are given in words; binding and its absence hold for the method and conditions named. For some assays here: Binding seen in cells or lysates may run through a third protein. Some entries that bind do so weakly or less than the wild type. For some assays here: Where a sequence is shown, tags or fusion partners need not be part of it.

Sequences of proteins named here, by UniProt entry; tags and fusion partners are left off.
UniProt Q62210: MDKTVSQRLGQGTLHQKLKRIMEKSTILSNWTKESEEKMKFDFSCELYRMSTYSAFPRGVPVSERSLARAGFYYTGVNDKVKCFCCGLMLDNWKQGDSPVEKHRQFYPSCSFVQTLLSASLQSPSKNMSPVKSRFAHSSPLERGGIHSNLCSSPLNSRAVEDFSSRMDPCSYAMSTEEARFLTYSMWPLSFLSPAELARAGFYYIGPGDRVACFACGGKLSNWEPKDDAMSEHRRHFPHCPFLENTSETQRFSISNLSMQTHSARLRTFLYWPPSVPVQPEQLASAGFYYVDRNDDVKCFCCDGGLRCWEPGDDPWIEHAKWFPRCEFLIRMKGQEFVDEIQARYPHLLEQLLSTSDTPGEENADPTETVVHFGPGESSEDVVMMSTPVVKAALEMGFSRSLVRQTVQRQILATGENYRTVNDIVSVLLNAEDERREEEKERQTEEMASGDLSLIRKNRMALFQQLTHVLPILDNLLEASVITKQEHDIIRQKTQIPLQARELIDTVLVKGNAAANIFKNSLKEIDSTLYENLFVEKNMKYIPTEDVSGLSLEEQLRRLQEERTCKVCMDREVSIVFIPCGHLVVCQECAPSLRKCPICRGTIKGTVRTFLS
UniProt Q9ET26: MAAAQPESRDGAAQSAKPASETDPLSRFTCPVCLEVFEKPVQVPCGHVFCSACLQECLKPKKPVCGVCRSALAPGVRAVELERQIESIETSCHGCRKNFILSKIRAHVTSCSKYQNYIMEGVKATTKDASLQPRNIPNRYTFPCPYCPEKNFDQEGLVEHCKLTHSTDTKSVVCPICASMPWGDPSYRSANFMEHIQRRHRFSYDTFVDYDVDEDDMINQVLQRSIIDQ

What was measured:
[1] = target: T1, tumor necrosis factor receptor associated factor (TRAF) 3, overexpressed in HEK293T cells (UniProt Q60803); test: co-IP; HEK293T cells transfected with the indicated plasmids (PEI, 48 h); lysates incubated with the indicated gels at 4 °C overnight, washed three times with cell lysis buffer; immunoblot
T1 sequence: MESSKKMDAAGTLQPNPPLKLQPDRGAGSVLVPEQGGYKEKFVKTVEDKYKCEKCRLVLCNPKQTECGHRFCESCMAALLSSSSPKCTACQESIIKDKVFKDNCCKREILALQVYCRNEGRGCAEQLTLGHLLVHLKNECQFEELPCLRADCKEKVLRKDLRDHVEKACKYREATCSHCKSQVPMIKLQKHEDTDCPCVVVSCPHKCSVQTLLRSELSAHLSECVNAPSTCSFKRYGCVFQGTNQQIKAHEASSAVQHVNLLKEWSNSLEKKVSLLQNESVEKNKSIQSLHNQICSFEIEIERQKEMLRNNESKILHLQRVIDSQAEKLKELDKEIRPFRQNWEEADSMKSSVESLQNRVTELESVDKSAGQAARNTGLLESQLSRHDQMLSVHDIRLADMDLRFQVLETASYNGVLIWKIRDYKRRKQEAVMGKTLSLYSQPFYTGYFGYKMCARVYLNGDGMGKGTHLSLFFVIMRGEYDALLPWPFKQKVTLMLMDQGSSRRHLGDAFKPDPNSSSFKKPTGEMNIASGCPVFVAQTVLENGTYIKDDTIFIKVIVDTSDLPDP

[2] = target: Flag-Efb released by the intracellular S. aureus complementation strain ΔEfb + Flag − Efb (Staphylococcus aureus Newman) (UniProt A6QG59); test: co-IP; MH-S macrophages infected with S. aureus strains (MOI = 25) for the indicated times; lysates incubated with the indicated gels at 4 °C overnight; immunoblot
[3] = target: extracellular fibrinogen-binding protein (Efb), overexpressed in HEK293T cells (Staphylococcus aureus) (UniProt A6QG59); test: co-IP; HEK293T cells transfected with the indicated plasmids (PEI, 48 h); lysates incubated with the indicated gels at 4 °C overnight, washed three times with cell lysis buffer; immunoblot
[4] = target: T2, TRAF3, endogenous in MH-S alveolar macrophages (mouse (endogenous in MH-S)) (UniProt Q60803); test: co-IP; MH-S macrophages infected with S. aureus strains (MOI = 25) for the indicated times; lysates incubated with the indicated gels at 4 °C overnight; immunoblot
T2 sequence: T1 sequence

[5] = target: T3, purified TRAF3 (GST-pull down assay) (UniProt Q60803); test: pull-down; in vitro GST-pull down with purified Efb and TRAF3; both purified
T3 sequence: T1 sequence

## extracellular fibrinogen-binding protein (Efb), overexpressed in HEK293T cells (from UniProt A6QG59 30-165)
[1]
  binding: binds

## cellular-inhibitor-of-apoptosis-1 (cIAP1), overexpressed in HEK293T cells (from UniProt Q62210 1-612)
[1]
  binding: binds

## RNF114, endogenous in MH-S alveolar macrophages (from UniProt Q9ET26 1-229) (enzyme)
[2]
  binding: binds

## RING finger protein 114 (RNF114), overexpressed in HEK293T cells (from UniProt Q9ET26 1-229) (enzyme)
[3]
  binding: binds

## Flag-Efb released by the intracellular S. aureus complementation strain ΔEfb + Flag − Efb (from UniProt A6QG59 30-165)
[4]
  binding: binds

## purified Efb (GST-pull down assay) (from UniProt A6QG59 30-165)
[5]
  binding: binds

## cIAP1, endogenous in MH-S alveolar macrophages (from UniProt Q62210 1-612)
[4]
  binding: binds

## Efb released by the intracellular S. aureus Newman strain (from UniProt A6QG59 30-165)
[4]
  binding: binds
